The supplement of paper PMC3334620
Over roughly 33,000 sequences, “E-score (-0.5 to 0.5)” has its median near -8e-05; the highest 2% begin near 0.23. The list shows a part of the results.

biological target: T1, Nrg2 (UniProt P38082); assay: PBM E-score (8-mer binding enrichment) (E-score (-0.5 to 0.5)); higher = stronger / more preferred TF binding; details: protein concentration: 100 nM; construct: GST-full length
T1 sequence: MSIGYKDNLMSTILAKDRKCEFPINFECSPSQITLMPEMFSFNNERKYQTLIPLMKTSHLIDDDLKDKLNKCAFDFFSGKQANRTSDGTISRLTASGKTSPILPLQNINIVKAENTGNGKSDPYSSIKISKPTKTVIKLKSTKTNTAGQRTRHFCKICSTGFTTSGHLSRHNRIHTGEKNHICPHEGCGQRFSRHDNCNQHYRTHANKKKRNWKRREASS
Method: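 Universal 'all 10-mer' protein binding microarrays (Agilent AMADID 015681) probed with GST-tagged S. cerevisiae TFs (full-length or DBD) made by in vitro transcription/translation (PURExpress), about 100-200 nM. Bound TF was detected with fluorescent anti-GST. Each ungapped 8-mer (which stands for itself and its reverse complement) is scored by the PBM enrichment score (E-score), a modified Wilcoxon-Mann-Whitney statistic from -0.5 to +0.5, computed with the Universal PBM Analysis Suite. Scale: above 0.35 generally sequence-specific binding.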

Sequence | PBM E-score
AAGCAGAG | -0.00195
ACTCCTGC | 0.0155
GCACTTTA | -0.0724
ACGCGACA | 0.176
GCAGACCA | -0.125
ATCTCGGG | 0.18
CATCTTAG | 0.0135
GTTTACCA | 0.0775
ATCGATAG | 0.119
GAATAAAC | 0.0301
ATGCCAAT | 0.0107
AGCGTCCC | -0.116
ATCACCTC | -0.0043
GTAGGGGA | 0.0006
ACGCGACT | -0.0738
ACGAGGAA | 0.174
GCGTGGTA | -0.155
CCGTCGCA | -0.0175
CAATACGG | -0.0523
AGCAAGTG | -0.0161
CATTCGGG | 0.146
ATTGGAGG | -0.149
CATGAAGG | 0.0733
AATTTATA | 0.201
GCGCGTCA | 0.141

Sequence | PBM E-score
CCGTCTCA | -0.0533
ACTAGCTC | 0.119
GCATCCAA | -0.0508
CGACTACC | -0.31
ATGCGACC | 0.222
ATGGTTAA | -0.0657
CTTGTTAC | -0.0274
AAGGCCTT | -0.363
AGGGTACG | 0.15
ATCCTAGA | -0.00185
ACAGTAGA | 0.138
CAGTAGGG | -0.0149
AGTGTGAC | -8e-05
ACGTCCCC | -0.0434
ATAGTCGG | -0.122
GGCGCGGA | -0.0805
CAGTGCGA | -0.0277
CCGAAGCC | -0.159
AGCTGATG | 0.156
CCGGACTC | 0.00878
GCCCAACA | -0.139
AATCCCCT | 0.0153
AATTAGTC | 0.107
CAGTACAG | 0.142
CAGGCTTC | 0.0308

Sequence | PBM E-score
GATTATAA | 0.207
ACTGGTCA | 0.0341
ATTGAGAG | 0.0708
AGCGGTAC | -0.0689
AAAGGATA | 0.0589
AAGGGCAT | -0.139
GTCTCAAC | 0.00205
AATCACAA | -0.0115
AGTCCGAT | -0.0623
CGGCTCAC | -0.0136
AATGGAAA | 0.105
CGCGAGCC | 0.0282
CCGGGGAA | -0.0346
GCAGAGAA | 0.0344
GCCGGTCC | -0.239
TGCCTTAA | -0.131
CTACTACC | 0.0262
ACACGTAA | -0.178
GGTTAAAA | -0.104
AACCCGCC | 0.00993
GGGAGACC | -0.25
GTGATGTA | 0.118
GTACAGAA | 0.003
CTCACGCC | 0.0298
CACACTGA | -0.0328

Sequence | PBM E-score
GTCGCCCA | -0.131
ATATAGGG | 0.012
CGTGGGTA | -0.174
CTTGTCAC | -0.00902
AGCATGAC | 0.0515
AGATGTGG | -0.0882
CTGAGTCC | -0.0223
GCAAGTAC | -0.0477
AATCGATC | 0.0541
AAGACAAG | -0.0376
GAAAGGGC | -0.15
TTCTCCAA | 0.017
CGCTAACG | -0.0471
GCAAGGCC | -0.0343
CCTAAACA | -0.115
ATATCCAA | 0.0981
TAGTCTAA | -0.122
AATTGTTC | 0.153
CCGAGCGC | 0.00807
GAGGTAGC | -0.113
CGGTCACA | -0.0641
ACAAAACG | 0.209
AATAGTGT | 0.149
ACCGGTCC | -0.201
CCTCTGTA | -0.283

Sequence | PBM E-score
GACTAACA | -0.0342
AAGTCGTG | -0.06
AGCAGACC | 0.135
GGAGGGGA | -0.00585
GCCAACAA | -0.121
CCAGCAAG | 0.0352
TGCGGTAA | -0.0335
CACGGCCA | -0.0483
CCTATGCC | -0.0984
CGGGGCAG | -0.0955
CCGACGAG | -0.119
CTTGAATC | -0.068
CTGGAGGA | -0.171
CACCCAAG | -0.25
GAGAACTA | 0.113
TCATAGCA | -0.0234
CAAGATCC | 0.149
TACCCCCA | -0.159
CGTGCTGA | 0.0341
AGCCTTAC | -0.296
AAACGACG | 0.0872
GCCGGGAA | -0.11
AACCTAGG | 0.0725
CCGAGGGC | 0.0206
GATCCTGA | 0.122

Quoted at random: 3 entries already listed.
Sequence | PBM E-score
GCAGACCA | -0.125
ATTGAGAG | 0.0708
ATATCCAA | 0.0981

Following part.

Sequence | PBM E-score
CAGCATCC | -0.053
GCGCCCAC | 0.131
AGAGGGCA | -0.00675
ACGAAACT | 0.0216
CGCAGCGC | -0.0643
ATATACGA | 0.00028
ATTCGTCC | 0.27
AAAGTGAG | 0.113
ACATGTCT | 0.00802
ATAGCGAC | 0.0025
AAGCAACG | 0.161
ATGACTGA | -0.0496
AACCTAGA | -0.0251
GAACCGCA | 0.104
AATGCTAC | 0.162
CTAGTGGA | -0.111
GTCTCTTA | 0.051
CGCATTCA | 0.0356
CCGTTCTA | 0.102
CCGCAACA | 0.187
CGCATCAG | 0.135
ATATCACC | 0.136
ACGGGTCG | 0.196
TGAAGGAA | 0.113
CGCGCCAA | 0.0388

Sequence | PBM E-score
ATTTAATG | 0.211
AGAGCCGC | 0.0823
ACGAAGCT | -0.0491
ATGTAGCC | -0.158
ACATTGGA | -0.202
CCGGTTAC | -0.175
CCGAGCCG | -0.0216
ATCAACCA | 0.0788
GGTCCTAC | 0.00056
ATGATCAA | 0.121
ATTGCCCG | -0.0391
ATTCTTGA | 0.162
TATTGAAA | 0.198
GCTGATCA | 0.0236
CATGGCAG | -0.00112
AGCGCTGA | 0.016
GATTCGTA | 0.137
CTGTCCTA | -0.0917
AACAACCC | 0.218
ATTCGTGC | 0.202
CATCGAAG | 0.0469
AATTCTGG | -0.0933
CGATTGCA | 0.0892
ACTCTAAG | -0.167
CCCCTTAG | -0.179

Sequence | PBM E-score
ACTAGTCG | -0.149
GATTCTTA | 0.0806
AATGTTGA | -0.019
TGATAGAA | -0.0926
AAAGGCTT | -0.0369
AAGTGCTG | -0.00141
AGGTCTAC | -0.143
CGCTATCC | 0.0398
GTATATTA | 0.107
ACTCATTC | 0.117
TCTCCAAA | 0.0619
GCACTCGA | -0.0456
CATAAGCG | -0.0101
ACCAGTTC | -0.0501
ACTTATTA | 0.0462
CCTTGGCG | 0.0251
CGAATAGA | -0.102
GAGCTTAA | -0.125
AGGAGTAA | 0.0539
CCGGTACG | -0.354
CTTCCACC | -0.229
AAGTTGGC | 0.0472
ATCAGGGA | 0.0565
GCTGTTCC | -0.182
ATGCTATG | 0.0909

Quoted from the listing.
Value of GCATCCAA under PBM E-score: -0.0508
Value of CACACTGA under PBM E-score: -0.0328
Value of ACGAAGCT under PBM E-score: -0.0491
Value of CAGCATCC under PBM E-score: -0.053
Value of AAAGGATA under PBM E-score: 0.0589
Value of CCGTTCTA under PBM E-score: 0.102

(next part)

Sequence | PBM E-score
CCGGAGAA | -0.0787
GTCCGTAA | -0.0758
ATCTAGTA | 0.167
GCCATCCA | -0.141
CGTGTGAC | -0.116
CCCACCCC | 0.177
AGCCTCTA | -0.28
CAGAGTGC | -0.0667
AGATATTC | 0.0342
AATAAACG | -0.00619
ACATCTTG | -0.124
AGGAGCAC | 0.0739
AGGCCAAG | -0.227
CATGTGTA | -0.0451
CGAATGCA | 0.123
AACAGGGA | 0.176
ACGGCCTC | 0.0332
ACTTGCTG | 0.0682
GGCATGCA | -0.113
